Data from article PMC12428314.
No constants are given. Whether binding was seen depends on the method and setting. In cells and extracts the contact can be indirect. Some binding calls cover weakened binding; strength is not graded here.

The chains behind the UniProt entries cited, without tags or fusion partners.
UniProt Q9Z2I2: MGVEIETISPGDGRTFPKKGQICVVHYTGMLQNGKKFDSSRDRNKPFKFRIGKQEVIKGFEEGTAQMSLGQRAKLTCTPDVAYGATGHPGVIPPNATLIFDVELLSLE

Molecular target: FK506-binding protein 12.6 (FKBP12.6) (mouse (endogenous in left ventricular myocardium)) (UniProt Q9Z2I2)
Test: co-IP; 1.5 mg lysate of mouse left ventricular myocardial tissue (IP lysis buffer with protease inhibitor) incubated with anti-FKBP12.6 antibody and protein A/G magnetic beads overnight at 4 °C; immunoblotting

binding: binds
B1: Glomulin (GLMN) (protein, UniProt Q8BZM1 1-596)
chain: MAVEELQSIIKRCQILEEHDFKEEDFGLFQLAGQRCIEDGYINQLLEIIQDEKNKTIIKSMGWNLVGPVVRCLLRGREEDKREECFLIFDLLVKLCNPKELLLGLLELIEEPSGKQISQIILLLLQPLQTVIQKLPNNKAYSVGLALSTLWSQLSLLPVPHSEEQIQADDYGLCQCCKALIEFTKPFVEEVISDKENKENAKLKDELLKFCFKGLKCPLLTAQFLEQSEDVGNDPFRCFASEIIGFLSKIGHPVPQIILNHGRKKRTWDYLEFEEEEDKQLAESVASLTYLVFVQGIGIDQLPMVLSPSYLLQLNMEHIEVFLQRTEQSIYSKGLELLETSLLRLEDNSLCYQYLEIKSFLAVPQGLVKVMTLCPIETLRKKGLSMLQLFIDKLDSQGKYTLFRCLLNTSNHSGVEAFVIQNIKNQIDLSFKKTYNKWFAGAQLISLLDLVLSLPEGAETDLLQNSDRIMASLNLLRYLVIKDNEDDNQTGLWTELGKIENNFLKPLHIGLNMSKAHYEAEIKNSQQNNQVASMCKGVCSVTVGGEEIPSMPPEMQLKVLHSALFTFDLIESVLARVEELIEIKSKSTSEENVGIK
